# Measured values published in article PMC11232239.
# Chains of the proteins cited; added tags and fusions are not shown.
# UniProt P28482: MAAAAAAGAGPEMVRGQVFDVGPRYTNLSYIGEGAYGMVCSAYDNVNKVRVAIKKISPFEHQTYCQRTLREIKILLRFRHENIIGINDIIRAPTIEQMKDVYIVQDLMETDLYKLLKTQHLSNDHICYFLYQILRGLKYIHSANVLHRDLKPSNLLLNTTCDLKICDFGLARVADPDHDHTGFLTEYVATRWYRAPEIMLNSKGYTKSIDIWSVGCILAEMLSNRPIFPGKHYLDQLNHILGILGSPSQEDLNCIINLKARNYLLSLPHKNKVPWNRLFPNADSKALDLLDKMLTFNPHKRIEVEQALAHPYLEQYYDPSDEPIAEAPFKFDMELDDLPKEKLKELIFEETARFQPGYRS
# Target: T1, phosphofructokinase-platelet (PFKP), endogenous (human (endogenous in LIU-LSC-1)) (UniProt Q01813)
# T1 sequence: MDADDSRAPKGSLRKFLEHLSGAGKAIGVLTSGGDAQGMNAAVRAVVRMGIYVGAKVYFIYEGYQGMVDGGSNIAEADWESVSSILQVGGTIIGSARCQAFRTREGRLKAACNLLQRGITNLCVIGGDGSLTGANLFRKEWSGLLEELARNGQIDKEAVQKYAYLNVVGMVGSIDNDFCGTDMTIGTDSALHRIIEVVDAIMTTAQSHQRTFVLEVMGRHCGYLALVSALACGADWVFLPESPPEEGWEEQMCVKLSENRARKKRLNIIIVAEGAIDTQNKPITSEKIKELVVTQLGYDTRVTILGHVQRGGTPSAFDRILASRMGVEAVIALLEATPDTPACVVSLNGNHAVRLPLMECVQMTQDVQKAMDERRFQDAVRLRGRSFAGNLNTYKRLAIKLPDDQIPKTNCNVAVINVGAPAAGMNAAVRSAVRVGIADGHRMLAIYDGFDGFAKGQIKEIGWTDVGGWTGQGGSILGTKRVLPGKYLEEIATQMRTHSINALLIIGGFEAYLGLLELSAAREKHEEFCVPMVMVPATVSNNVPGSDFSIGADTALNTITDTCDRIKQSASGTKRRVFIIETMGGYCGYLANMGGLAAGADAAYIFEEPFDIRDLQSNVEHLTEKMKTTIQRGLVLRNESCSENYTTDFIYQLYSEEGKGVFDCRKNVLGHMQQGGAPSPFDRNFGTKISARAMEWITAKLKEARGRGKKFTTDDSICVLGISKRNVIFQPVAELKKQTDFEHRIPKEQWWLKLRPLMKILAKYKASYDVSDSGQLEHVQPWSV
# Assay: affinity purification with mass spectrometry; anti-PFKP or IgG antibodies on agarose beads, cell lysate supernatant overnight at 4 °C, 4-12% SDS-PAGE, bands cut out, LC/MS; cells not given
substance,measurement,value
"ERK2, endogenous (from UniProt P28482 1-360)",binding,binds

# Results are given in words; binding and its absence hold for the method and conditions named. Binding seen in cells or lysates may run through a third protein. These calls come from enrichment with a bait or labelling near it, and not all partners need be listed.
